Measurements taken from PubChem BioAssay AID1671190 (National Center for Advancing Translational Sciences (NCATS), 2021).
Screen size: about 580,000 compounds; about 6,100 (1.1%) were called active. Inconclusive means that the source gave no clear call. Such entries were picked first, then a sample of the others. The call rests on the fitted dose curve; in most records, active means well fitted inhibition curve with a large enough effect; inconclusive means small, poorly fitted or top-dose-only effect, or another doubt; inactive means no such curve, though single readings can be large or run the other way. Potencies beside an inconclusive call are fits to weak or partial responses and may not hold up.
On the % scale 0 is the no-effect control and ±100 the full control effect; potency means the concentration at half of the fitted maximal effect.

Protein sequences, listed by entry. Tags and fused reporters are not part of them. Lines headed by an entry give the natural chain unless they say otherwise; changes in a name come on top.
UniProt P18054: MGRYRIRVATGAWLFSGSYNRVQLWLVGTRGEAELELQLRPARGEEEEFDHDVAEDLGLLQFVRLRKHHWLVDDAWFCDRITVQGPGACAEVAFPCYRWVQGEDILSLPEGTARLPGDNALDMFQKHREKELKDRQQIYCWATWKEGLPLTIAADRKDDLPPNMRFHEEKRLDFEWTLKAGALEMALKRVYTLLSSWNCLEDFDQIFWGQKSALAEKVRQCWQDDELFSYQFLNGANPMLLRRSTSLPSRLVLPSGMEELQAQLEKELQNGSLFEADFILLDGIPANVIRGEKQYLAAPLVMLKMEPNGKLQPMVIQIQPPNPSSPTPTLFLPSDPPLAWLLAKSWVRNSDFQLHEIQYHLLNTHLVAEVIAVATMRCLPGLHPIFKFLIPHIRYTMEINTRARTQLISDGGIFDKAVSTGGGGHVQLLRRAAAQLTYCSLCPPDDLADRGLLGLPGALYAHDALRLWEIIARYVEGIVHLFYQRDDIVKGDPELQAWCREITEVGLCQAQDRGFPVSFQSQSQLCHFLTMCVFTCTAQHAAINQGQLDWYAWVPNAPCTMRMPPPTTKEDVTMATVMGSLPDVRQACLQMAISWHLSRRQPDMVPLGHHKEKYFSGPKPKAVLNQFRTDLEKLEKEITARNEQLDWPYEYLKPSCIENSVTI

These compounds were tested against Polyunsaturated fatty acid lipoxygenase ALOX12 (Homo sapiens) (UniProt P18054) (assay: Primary qHTS assay for inhibitors of human arachidonate 12S-lipoxygenase (ALOX12): Round 2). Conditions: purified 12hLO, xylenol orange hydroperoxide absorbance; activity change, negative = inhibition: at 108 µM (top of the series) unless noted.
Outline: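 Purified human 12hLO at 150 nM in 25 mM Hepes, 0.01% Triton X-100, pH 7.0, preincubated 15 min at room temperature with compound. Reaction started with 40 uM arachidonic acid, 30 min at room temperature. Hydroperoxide measured by Fe-xylenol orange, 573/405 nm absorbance ratio.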
For `O=C(NCc1cccc(Br)c1)c1cc(-c2ccccc2)nn1CC1CC(c2cccc([N+](=O)[O-])c2)=NO1` (stereo not drawn), the “activity change, negative = inhibition” value was inactive: -3.25%. In the case of `CN(C)c1ccc(NC(=O)c2cccc(N3C(=O)C4C5C=CC(C5)C4C3=O)c2)cc1` (stereo not drawn), the Potency is reported as inconclusive: 39.8 µM [inhibitor, partial curve, poor fit]. For `CCc1cc2c(SCC(=O)Nc3ccc(C(C)=O)cc3)ncnc2s1`, the Potency was inconclusive: 56.2 µM [inhibitor, single point]. For `O=C1CN(C(=O)CCn2c(-c3ccccc3)cc3ccccc32)CCN1`, the “activity change, negative = inhibition” value was inactive: -16.2%. In the case of `NC(=O)[C@H]1C[C@@H](O)[C@H](O)[C@H]2[C@@H]1SC(=Nc1ccc(Cl)cc1)N2CC1CCCCC1`, the Potency is reported as active: 28.2 µM. For `Cc1cccc(Nc2nc(-c3ccc4c(c3)CCC(=O)N4)cs2)c1`, the Potency was inconclusive: 31.6 µM [inhibitor, partial curve]. For `COc1ccccc1CNS(=O)(=O)c1ccc(S(=O)(=O)NC2CC2)cc1`, the “activity change, negative = inhibition” value was inactive: 3.46%. In the case of `CCOC(=O)C1=C(CSc2nc(C)ccc2C#N)OC(N)=C(C#N)C1c1cccc(OC)c1OC` (stereo not drawn), the Potency is reported as inconclusive: 2.51 µM [inhibitor, full curve, poor fit]. With `Cc1cccnc1CN1CCN(C(=O)c2cc(COc3ccc4ncccc4c3)on2)CC1` the “activity change, negative = inhibition” value was inactive: 13.9%. For `CCOC(=O)c1noc(C)c1C(=O)Nc1cccc(F)c1`, the “activity change, negative = inhibition” value was inactive: -22.2%. With `c1ccc(C[C@H]2CN=C(Nc3ccccc3)N2CC2CCCCC2)cc1` the Potency was inconclusive: 70.8 µM [inhibitor, partial curve, poor fit]. For `O=C(CCC1CCCC1)N1CCN(C(=O)c2cc(=O)[nH]c3ccccc23)CC1`, the Potency was inconclusive: 141 µM [inhibitor, single point]. With `Cn1cc(Br)c(C(=O)n2cc(Br)cn2)n1` the Potency was inconclusive: 50.1 µM [inhibitor, partial curve, poor fit]. For `Cc1cc(C)cc(-c2nnc(SCC(=O)N3CCC3)o2)c1`, the “activity change, negative = inhibition” value was inactive: -7.72%. In the case of `CN(C)S(=O)(=O)c1cccc(NC(=O)c2ccc(-n3cncn3)c([N+](=O)[O-])c2)c1`, the Potency is reported as inconclusive: 112 µM [inhibitor, partial curve, poor fit]. With `COc1ccc(C)cc1Cn1c(S(C)(=O)=O)nc2ccccc21` the Potency was inconclusive: 7.08 µM [inhibitor, full curve, poor fit]. In the case of `NC1=NC(=O)/C(=C\c2ccc(-c3ccc(Cl)cc3)o2)S1`, the Potency is reported as inconclusive: 63.1 µM [inhibitor, partial curve, poor fit]. With `COc1ccc(C(CCNCc2ccc(OC(C)C)cc2)C(C)C)cc1` (stereo not drawn) the Potency was inconclusive: 112 µM [inhibitor, single point]. `O=C(Nc1ccc(Oc2ccccc2)cc1)N[C@H]1CO[C@H]2[C@@H]1OC[C@@H]2n1nnnc1Oc1ccccc1` was tested, and the Potency was inconclusive: 56.2 µM [inhibitor, partial curve, poor fit]. `Cn1c(=O)n(C)c2cc(NS(=O)(=O)c3ccccc3)c(NCc3ccccc3)cc21` was tested, and the “activity change, negative = inhibition” value was inactive: 7.45%. With `CN1CCC(N(C)S(=O)(=O)c2ccc(NC(=O)COc3cccc(Cl)c3)cc2)CC1` the “activity change, negative = inhibition” value was inactive: -5.85%. With `NC(=O)NCc1ccc(C(=O)NNC(=O)c2c[nH]c3ccccc23)cc1` the Potency was inconclusive: 0.282 µM [inhibitor, full curve, poor fit]. For `N#CCCCSc1nnnn1-c1cccc(Cl)c1`, the Potency was inconclusive: 11.2 µM [inhibitor, partial curve, poor fit]. For `c1cc(CNCCCN2CCCCC2)ccn1`, the Potency was inconclusive: 4.47 µM [inhibitor, full curve, poor fit]. In the case of `CCN1CCN(C(c2cccnc2)c2c(NC(=O)c3ccco3)sc(C)c2C)CC1` (stereo not drawn), the Potency is reported as inconclusive: 89.1 µM [inhibitor, single point]. In the case of `COc1cccc(CNCCSc2nnnn2C)c1`, the Potency is reported as inconclusive: 100 µM [inhibitor, partial curve, poor fit]. With `CONC(=O)c1ccc(C(F)(F)F)nc1C` the “activity change, negative = inhibition” value was inactive: 0.611%. `Cc1ccc(NC(=O)CCNS(=O)(=O)c2ccc3[nH]c(=O)oc3c2)cc1F` was tested, and the Potency was inconclusive: 39.8 µM [inhibitor, partial curve, poor fit]. `O=C1COc2ccc(C(=O)COC(=O)c3nc(Cl)ccc3Cl)cc2N1` was tested, and the Potency was inconclusive: 79.4 µM [inhibitor, single point]. With `O=C(c1ccco1)N(c1ccccn1)c1ccccn1` the “activity change, negative = inhibition” value was inactive: 0%. For `CC(=O)N1CCC(C(=O)N2CCC3(CC2)NC(=O)N(c2ccccc2)N3)CC1`, the Potency was active: 1.58 µM. In the case of `O=C(Nc1cccc(Cl)c1)c1c(NC(=O)C(F)(F)F)sc2c1CCCC2`, the Potency is reported as inconclusive: 35.5 µM [inhibitor, partial curve, poor fit]. `CC(C)N1C/C(=C/c2ccsc2)C(=O)/C(=C/c2ccsc2)C1` was tested, and the Potency was inconclusive: 15.8 µM [inhibitor, partial curve]. `CSc1nsc(NC(=O)Cc2ccccc2)n1` was tested, and the “activity change, negative = inhibition” value was inactive: -6.4%. With `CCN(CC)c1ccc(NC(=O)C(Cc2ccccc2)NS(=O)(=O)c2ccc(Br)s2)c(C)c1` (stereo not drawn) the Potency was inconclusive: 141 µM [inhibitor, partial curve, poor fit]. For `CC1CCN(C(=O)Cc2n[nH]c(=O)c3ccccc23)CC1`, the “activity change, negative = inhibition” value was inactive: -1.86%. For `C[C@]1(CO)[C@H]2Cc3sc(NC(=O)c4cccc(F)c4)nc3[C@@H](CC(=O)N3CCOCC3)[C@]2(C)CC[C@H]1O`, the “activity change, negative = inhibition” value was inactive: -24.7%. `COc1cc(NC(=O)Cn2c(SCc3cccc(C)c3)nc3ccncc32)cc(OC)c1` was tested, and the Potency was inconclusive: 126 µM [inhibitor, single point]. With `Cc1cccc(C)c1OC(=O)c1ccc(C#N)cc1` the Potency was inconclusive: 6.31 µM [inhibitor, full curve, poor fit]. In the case of `Cc1[nH]c2ccc(-c3n[nH]c(=S)n3C)cc2c1C`, the Potency is reported as inconclusive: 63.1 µM [inhibitor, partial curve, poor fit]. With `O=C(Nc1cccc(F)c1)C1CCCN(C(=O)c2ccc(Cl)cc2)C1` (stereo not drawn) the “activity change, negative = inhibition” value was inactive: 169%. `CC(C)(C)c1ccc(-c2n[nH]c(=S)n2Cc2ccccc2)cc1` was tested, and the Potency was inconclusive: 44.7 µM [inhibitor, partial curve, poor fit]. With `COc1ccc(CCNCc2c(C(=O)O)c(C)n(Cc3ccccc3C)c2C)c(OC)c1` the “activity change, negative = inhibition” value was inactive: -22.9%.
